PubChem BioAssay AID686943, Drosophila RNAi Screening Center | 2013
The deposit covers about 23,000 reagents; this is an unselected part of those with a known target gene and a result. 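Extra replicates exist only for a retested subset of genes; insulin dose and duration not given; both raised and lowered dpERK matter.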 Reagents against one gene are numbered here. A plus sign joins genes that one reagent is predicted to hit. Further read-outs or replicates are left out here. The record does not give: the amount of reagent, the time to read-out.

Screen: 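Fly genes whose loss alters ERK activation after insulin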 (primary screen)
Cell system: Drosophila S2R+ haemocyte-like cells expressing YFP-tagged ERK (Rolled)
Reagents: long dsRNA against Drosophila genes
Conditions: insulin stimulation versus unstimulated cells; dose and duration not given
Measured: 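Antibody staining for doubly phosphorylated ERK divided by ERK-YFP signal, as plate z-scores, in insulin-treated and untreated cells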
Scale: replicate 1, z-score of dpERK with insulin: higher = more active ERK per ERK-YFP after insulin

replicate 1, z-score of dpERK with insulin, by gene knocked down and reagent
ND-B14.5AL (NADH dehydrogenase (ubiquinone) B14.5 A subunit-like): #1 -0.2
CG13833: #1 -0.35
Sfp38D (Seminal fluid protein 38D): #1 0.03
MESK2 (Misexpression suppressor of KSR 2): #1 0.41
mRpL20 (mitochondrial ribosomal protein L20): #1 -0.37
CG18682 (retired record): #1 0.88; #2 1.19
CG6845: #1 1.03
Lis-1 (Lissencephaly-1): #1 0.7
CG34301: #1 -0.7
OtopLa (Otopetrin-like a): #1 1.36; #2 0.32
CG13038: #1 2.03
CG10208: #1 -0.37
Obp56f (Odorant-binding protein 56f): #1 -2.34
CG15144: #1 0.79
Pp1-Y1 (Protein phosphatase 1, Y-linked 1): #1 -1.7
Rich (RIC1 homolog): #1 0.7
ppk21 (pickpocket 21): #1 -0.45

Part of the list above, reformatted.
OtopLa (Otopetrin-like a) #1 | replicate 1, z-score of dpERK with insulin: 1.36
OtopLa (Otopetrin-like a) #2 | replicate 1, z-score of dpERK with insulin: 0.32
CG13038 | replicate 1, z-score of dpERK with insulin: 2.03
CG10208 | replicate 1, z-score of dpERK with insulin: -0.37
Obp56f (Odorant-binding protein 56f) | replicate 1, z-score of dpERK with insulin: -2.34
CG15144 | replicate 1, z-score of dpERK with insulin: 0.79

The results go on.
replicate 1, z-score of dpERK with insulin, by gene knocked down and reagent
CG31560: #1 1.21
CG42700: #1 -3.96; #2 0.43
CG13614: #1 -0.18
mei-P22 (meiotic P22): #1 -0.29
CG10477: #1 -0.16
mid (midline): #1 -0.32; #2 0.2
kin17: #1 0.82
CG12934: #1 -0.32
Fatp2 (Fatty acid transport protein 2): #1 0.15; #2 1.24; #3 0.45
Him (Holes in muscle): #1 -0.07
Vsp37A (Vacuolar protein sorting 37A): #1 2.28
CG3062: #1 -0.15
CG33978: #1 -0.61
pen-2 (presenilin enhancer): #1 0.27
Ibf2 (Insulator binding factor 2): #1 0.65
CG13043: #1 -0.16
LRR (Leucine-rich repeat): #1 0.23
CG30269: #1 0.22
Pepck1 (Phosphoenolpyruvate carboxykinase 1): #1 0.24
CG8008: #1 -0.4
CG3735: #1 -0.56
Oseg6 (Outer segment 6): #1 -0.29
r2d2: #1 0.59
Argl + CG9515: #1 0.48; #2 -0.48
CG6873: #1 -1.74
Ir75c (Ionotropic receptor 75c): #1 0.18
Oatp30B (Organic anion transporting polypeptide 30B): #1 0.64
sqh (spaghetti squash): #1 0.06
CG9953: #1 -0.29
Adck1 (aarF domain containing kinase 1): #1 0.25
CG11381: #1 -1.08
CG8319: #1 -0.18
kek4 (kekkon 4): #1 -0.62
